Results: PMC3237552
Results are given in words; binding and its absence hold for the method and conditions named. In cells and extracts the contact can be indirect. Some results given as binding are weak or reduced against the parent protein; the word gives no strength.

Chains of the proteins cited; added tags and fusions are not shown. Residues count along the entry.
UniProt P03950, residues 25-147: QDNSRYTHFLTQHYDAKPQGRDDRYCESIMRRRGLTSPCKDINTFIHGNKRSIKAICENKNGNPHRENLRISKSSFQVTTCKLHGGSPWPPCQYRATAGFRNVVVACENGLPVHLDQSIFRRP
UniProt P35579: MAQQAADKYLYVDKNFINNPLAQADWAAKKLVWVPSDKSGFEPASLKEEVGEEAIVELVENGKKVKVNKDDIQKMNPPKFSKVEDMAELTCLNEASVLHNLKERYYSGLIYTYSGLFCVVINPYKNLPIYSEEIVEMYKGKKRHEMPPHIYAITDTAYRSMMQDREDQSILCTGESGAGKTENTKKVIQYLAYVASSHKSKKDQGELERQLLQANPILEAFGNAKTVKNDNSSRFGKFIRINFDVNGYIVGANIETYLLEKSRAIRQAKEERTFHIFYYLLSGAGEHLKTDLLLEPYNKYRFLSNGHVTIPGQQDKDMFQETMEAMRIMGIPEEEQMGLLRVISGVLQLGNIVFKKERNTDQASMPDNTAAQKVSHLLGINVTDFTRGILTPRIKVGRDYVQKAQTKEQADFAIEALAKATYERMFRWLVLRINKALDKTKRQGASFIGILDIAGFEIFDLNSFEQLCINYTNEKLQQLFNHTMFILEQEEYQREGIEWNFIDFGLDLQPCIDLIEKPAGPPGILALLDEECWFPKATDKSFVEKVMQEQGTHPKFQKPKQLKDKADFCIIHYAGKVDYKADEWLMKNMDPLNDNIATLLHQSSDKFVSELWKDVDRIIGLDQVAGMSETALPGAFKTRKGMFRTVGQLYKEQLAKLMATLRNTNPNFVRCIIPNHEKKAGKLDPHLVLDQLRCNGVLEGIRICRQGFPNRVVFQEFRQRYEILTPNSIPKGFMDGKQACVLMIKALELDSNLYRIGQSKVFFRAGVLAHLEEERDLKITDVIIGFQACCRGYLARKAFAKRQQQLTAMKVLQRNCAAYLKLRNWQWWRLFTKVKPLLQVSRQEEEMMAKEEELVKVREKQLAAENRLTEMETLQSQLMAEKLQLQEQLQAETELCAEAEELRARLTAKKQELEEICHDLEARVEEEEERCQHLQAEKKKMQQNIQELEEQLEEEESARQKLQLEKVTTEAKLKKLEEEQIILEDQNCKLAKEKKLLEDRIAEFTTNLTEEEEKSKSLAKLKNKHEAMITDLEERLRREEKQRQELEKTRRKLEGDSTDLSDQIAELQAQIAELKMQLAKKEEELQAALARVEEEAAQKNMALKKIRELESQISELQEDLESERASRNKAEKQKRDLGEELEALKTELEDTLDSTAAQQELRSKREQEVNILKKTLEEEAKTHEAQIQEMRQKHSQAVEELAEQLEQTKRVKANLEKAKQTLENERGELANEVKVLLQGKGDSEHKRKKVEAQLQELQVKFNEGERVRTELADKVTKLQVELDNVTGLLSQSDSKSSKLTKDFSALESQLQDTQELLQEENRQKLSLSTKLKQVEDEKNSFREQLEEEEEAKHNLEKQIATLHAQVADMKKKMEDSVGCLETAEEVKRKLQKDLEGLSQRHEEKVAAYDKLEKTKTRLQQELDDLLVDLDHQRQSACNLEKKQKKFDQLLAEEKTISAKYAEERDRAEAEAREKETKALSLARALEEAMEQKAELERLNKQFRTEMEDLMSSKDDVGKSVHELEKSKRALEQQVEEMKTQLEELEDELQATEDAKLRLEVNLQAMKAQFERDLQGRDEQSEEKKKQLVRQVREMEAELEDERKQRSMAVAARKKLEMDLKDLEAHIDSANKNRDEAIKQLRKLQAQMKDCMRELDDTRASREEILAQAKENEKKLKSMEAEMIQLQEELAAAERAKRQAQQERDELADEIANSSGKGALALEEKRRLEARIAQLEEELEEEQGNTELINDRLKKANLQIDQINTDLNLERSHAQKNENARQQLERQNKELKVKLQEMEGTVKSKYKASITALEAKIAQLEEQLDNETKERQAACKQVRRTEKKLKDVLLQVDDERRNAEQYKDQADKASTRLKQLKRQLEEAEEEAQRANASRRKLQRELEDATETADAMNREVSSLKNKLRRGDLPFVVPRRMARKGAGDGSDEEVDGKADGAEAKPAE
UniProt O43707: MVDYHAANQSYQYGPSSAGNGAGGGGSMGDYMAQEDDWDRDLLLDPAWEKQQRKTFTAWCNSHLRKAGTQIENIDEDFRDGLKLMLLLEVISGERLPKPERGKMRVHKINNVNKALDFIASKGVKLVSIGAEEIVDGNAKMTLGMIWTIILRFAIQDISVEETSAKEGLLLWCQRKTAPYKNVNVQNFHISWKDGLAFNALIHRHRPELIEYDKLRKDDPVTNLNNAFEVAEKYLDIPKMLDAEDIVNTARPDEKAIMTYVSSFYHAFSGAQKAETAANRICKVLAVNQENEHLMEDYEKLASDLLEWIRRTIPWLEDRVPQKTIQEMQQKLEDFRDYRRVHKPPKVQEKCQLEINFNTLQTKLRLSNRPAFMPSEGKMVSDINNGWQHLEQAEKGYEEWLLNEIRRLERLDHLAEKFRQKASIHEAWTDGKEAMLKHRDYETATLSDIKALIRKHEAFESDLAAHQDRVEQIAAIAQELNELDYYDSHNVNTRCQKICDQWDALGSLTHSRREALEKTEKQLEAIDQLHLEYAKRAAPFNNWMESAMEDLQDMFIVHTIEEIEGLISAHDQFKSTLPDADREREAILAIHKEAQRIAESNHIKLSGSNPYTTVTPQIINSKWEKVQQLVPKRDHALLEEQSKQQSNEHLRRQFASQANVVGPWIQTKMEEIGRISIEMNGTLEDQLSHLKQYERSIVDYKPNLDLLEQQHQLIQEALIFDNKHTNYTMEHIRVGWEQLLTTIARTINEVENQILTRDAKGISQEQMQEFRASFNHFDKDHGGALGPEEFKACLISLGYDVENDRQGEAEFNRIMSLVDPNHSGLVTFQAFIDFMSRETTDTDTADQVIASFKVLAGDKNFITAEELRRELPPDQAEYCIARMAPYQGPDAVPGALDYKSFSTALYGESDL

Biological target: Angiogenin (human (endogenous in HeLa)) (UniProt P03950)
Experiment: co-IP; HeLa cells with or without exogenous ANG, RIPA lysates; immunoprecipitation with goat anti-ANG antibody or goat IgG; blots with anti-MYH9, anti-ACTN4, anti-ACTB and anti-ANG

Row | binding | Substance
1 | binds | Myosin-9 (from UniProt P35579 1-1960)
2 | binds | Alpha-actinin-4 (from UniProt O43707 1-911)
